Laboratory results as given in PubChem BioAssay AID595 (National Center for Advancing Translational Sciences (NCATS), 2007).
The whole screen tested about 71,000 compounds, of which about 310 (0.44%) were called active. Inconclusive means that the source gave no clear call. Such entries were picked first, then a sample of the others. Calls come from the whole dose curve; as a rule, active = well fitted curve in either direction with a large enough effect; inconclusive = small, poorly fitted or top-dose-only effect, or another doubt; inactive = flat fitted curve, though single readings scatter. Potencies beside an inconclusive call are fits to weak or partial responses and may not hold up.

test system: Hsp90 C-terminal peptide / TPR2A (Hop) interaction, human; assay: qHTS Assay for Disrupters of an Hsp90 Co-Chaperone Interaction; details: AlphaScreen TPR2A-His6 binding biotin-Hsp90 C-terminal peptide; activity change, negative = inhibition: at 57 µM (top of the series) unless noted
% is set by controls: 0 for no effect and ±100 for the full control effect; potency is the fitted concentration of half-maximal effect.

SMILES	activity change, negative = inhibition	Potency
O=C1c2ccccc2NC(c2cnc3ccccc3n2)N1O (centres undefined)	inconclusive: 33.5%	
COc1ccc(-c2nc3cnc(N4CCN(C)CC4)nc3n(-c3ccc(OC)cc3)c2=O)cc1	inconclusive: 182%	
O=c1c(-c2ccccc2)n[nH]c2ccccc12	inactive	
COc1cccc(Cn2c(=O)c(CCc3ccccc3)nc3cnc(N4CCOCC4)nc32)c1	inactive	
Cc1cccc(Cn2c(N3CCN(c4ccccc4)CC3)nc3c2c(=O)n(C)c(=O)n3C)c1	inconclusive: 64.9%	
FC(F)(F)c1cc(-c2ccccc2)nc(N2CCCCC2)n1		inconclusive: 20 µM [activator, single point]
CCOC(=O)N1CCN(CC(=O)Nc2ccc(C)cc2)CC1	inconclusive: 35.8%	
c1ccc(-c2noc(-c3cccc4ccccc34)n2)cc1		inconclusive: 31.6 µM [activator, single point]
N#CC1(c2c(O)nc3n(c2=O)CCCS3)CCCCC1	inconclusive: 42%	
COc1cccc(Nc2nc(-c3sc(N)nc3C)cs2)c1		inconclusive: 31.6 µM [inhibitor, single point]
C[C@H](CCC(=O)O)[C@H]1CC[C@H]2[C@@H]3CC[C@@H]4C[C@H](O)CC[C@]4(C)[C@H]3CC[C@]12C	inactive	
CC(CCc1ccccc1)NC(=O)C1CCCN(C(=O)c2cc3sccc3n2C)C1 (centres undefined)	inactive	
O=S(=O)(Nc1nc2ccccc2nc1Nc1ccc2c(c1)OCCO2)c1cccs1	inconclusive: 14.2%	
C[N+](C)(C)c1ncnc2c1ncn2[C@@H]1C[C@H](O)[C@@H](CO)O1	inactive: -3.83% [at 11 µM]	
Cc1ccccc1-c1nnc(SCc2ccccc2)o1		inconclusive: 31.6 µM [activator, single point]
O=S(=O)(Nc1ccc2c(c1)nc1n2CCOC1)c1ccccc1	inconclusive: 49.3%	
CN1CCN(c2ncc3nc(-c4cccc(C#N)c4)c(=O)n(Cc4ccc(F)cc4)c3n2)CC1	inactive	
COC(=O)CSc1nc(NCC(C)C)nc(N2CCOCC2)n1	inconclusive: 51.5%	
Cc1cc(=S)cc(C)n1CCCn1ccnc1		inconclusive: 31.6 µM [inhibitor, single point]
COc1ccc(NC(=O)Nc2cc(C)ccc2OC)cc1	inconclusive: 37.7%	
CCOC(=O)Nc1ccc(NCc2ccc(F)cc2)nc1N		inconclusive: 31.6 µM [inhibitor, partial curve]
O=C(NCCc1ccc2c(c1)OCCO2)c1cc2ccccc2o1	inconclusive: 61%	
c1csc(-c2ccc3ccccc3n2)c1		inconclusive: 31.6 µM [activator, single point]
c1ccc(-n2c(Cc3cn4ccsc4n3)nnc2N2CCOCC2)cc1		inconclusive: 25.1 µM [inhibitor, partial curve]
N#CCc1ccccc1[N+](=O)[O-]	inactive	
O=C(NCCN1CCOCC1)c1ccc(CS(=O)(=O)c2ccc(Br)cc2)o1	inconclusive: 46.6%	
COc1ccccc1N1CCN(C(=O)N2CCOCC2)CC1	inactive: -8.14% [at 11 µM]	

Compounds above with a furan ring, fused or not, in the order listed:
SMILES	activity change, negative = inhibition	Potency
O=C(NCCc1ccc2c(c1)OCCO2)c1cc2ccccc2o1	inconclusive: 61%	
O=C(NCCN1CCOCC1)c1ccc(CS(=O)(=O)c2ccc(Br)cc2)o1	inconclusive: 46.6%	

(next part)

SMILES	activity change, negative = inhibition	Potency
CC(C)c1ccc(CNc2ccc(N3CCOCC3)cc2)cc1		inconclusive: 25.1 µM [inhibitor, partial curve]
C[C@@H]1c2cccc(O)c2C(O)=C2C(=O)[C@@]3(O)C(O)=C(C(N)=O)C(=O)[C@@H](N(C)C)[C@@H]3[C@@H](O)[C@@H]21	inconclusive: -25.4%	
O=S(=O)(c1ccc(Cl)cc1Br)N1CCCCC1		inconclusive: 31.6 µM [activator, single point]
CCc1ccccc1N(CC)C(=O)CCc1nc(-c2ccc(C)cc2)no1		inconclusive: 25.1 µM [activator, single point]
C=CCN1C(=NC(=O)CCCC(=O)O)SC2CS(=O)(=O)CC21 (centres undefined)	inactive	
CCOC(=O)C1CCN(c2nc3cc(OC)ccc3cc2C#N)CC1		active: 25.1 µM [activator]
COc1ccc(N(CC(=O)Nc2cc(C(=O)O)ccc2C)S(=O)(=O)c2c(C)noc2C)cc1	inactive	
CCOC(=O)c1cc2sccc2n1CC(=O)N1CCN(C(=O)c2ccco2)CC1	inconclusive: 47.9%	
COc1cc2c(cc1OC)-c1c(OC)c(OC)cc3ccnc(c13)C2=O		inconclusive: 39.8 µM [inhibitor, single point]
CCOC(=O)Nc1ccc2c(c1)N(C(=O)N1CCN(C)CC1)c1ccccc1S2	inconclusive: 28.3%	
Cc1ccn2cc(-c3ccc(S(=O)(=O)N4CCOCC4)cc3)nc2c1	inconclusive: 39.8%	
COc1ccccc1NC(=O)C1C2CCCCC21 (centres undefined)	inconclusive: 55%	
CCC[C@@H]1C[C@@]1(CCC)C(NC(=O)OCc1ccccc1)c1ccc(-c2ccccc2)cc1 (some centres undefined)		inconclusive: 25.1 µM [activator, single point]
Cn1cccc1C(=O)N1CCC2(CC1)CN(C(=O)Nc1cccc(C#N)c1)C2	inactive	
Cn1cccc1C(=O)N1CCC[C@@]2(CCN(c3cccc(-c4ccccc4)c3)C2)C1		inconclusive: 31.6 µM [inhibitor, partial curve]
COCC(=O)O[C@]1(CCN(C)CCCc2nc3ccccc3[nH]2)CCc2cc(F)ccc2[C@@H]1C(C)C		inconclusive: 12.6 µM [inhibitor, single point]
Cn1c(-c2ccc3nc(N)sc3c2)nc2cc(N)ccc21	inconclusive: -31.2%	
O=C(c1ccc(S(=O)(=O)N2CCCC2)cc1)N1CCN(Cc2ccc3c(c2)OCO3)CC1	inactive	
O=C(Oc1ccccc1OC(=O)N1CCOCC1)N1CCOCC1	inconclusive: 43.6%	
COc1ccccc1OCCCn1c(C)c(C#N)c2ccccc21		inconclusive: 20 µM [activator, single point]
CCn1c(COc2ccccc2)nnc1SCc1ccc(C#N)cc1	inactive	
COC(=O)c1ccc(OC)c(CSc2nnc(COc3cccc(C)c3)o2)c1		inconclusive: 31.6 µM [activator, single point]
CCOC(=O)c1oc2ccccc2c1NC(=O)c1cccc(OC)c1		inconclusive: 25.1 µM [activator, single point]
c1ccc(CSc2nnc(-c3ccncc3)o2)cc1	inactive	
Cc1noc(C)c1C(=O)N1CCc2ccccc2C1	inconclusive: 36.8%	
CCOC(=O)c1ccc(NC(=O)N2CCN(c3ccccn3)CC2)cc1	inconclusive: 50.3%	
COc1ccc(NC(=O)C=C(C)C)cc1Cl	inconclusive: 46.8%	

Some of the entries so far, in markdown:

| SMILES | activity change, negative = inhibition | Potency |
| --- | --- | --- |
| O=c1c(-c2ccccc2)n[nH]c2ccccc12 | inactive |  |
| CN1CCN(c2ncc3nc(-c4cccc(C#N)c4)c(=O)n(Cc4ccc(F)cc4)c3n2)CC1 | inactive |  |
| CC(C)c1ccc(CNc2ccc(N3CCOCC3)cc2)cc1 |  | inconclusive: 25.1 µM [inhibitor, partial curve] |
| Cc1ccn2cc(-c3ccc(S(=O)(=O)N4CCOCC4)cc3)nc2c1 | inconclusive: 39.8% |  |

Next records follow.

SMILES	activity change, negative = inhibition	Potency
O=C(CCCC1=NS(=O)(=O)c2ccccc2N1)N1CCN(c2ccc(Cl)cc2)CC1	inconclusive: 42.5% [at 2.3 µM]	
CCOC(=O)N1CCC(n2c(=S)[nH]c3cc(OCC)c(OCC)cc3c2=O)CC1	inconclusive: 44.5%	
COc1ccc(C2CC(C(F)(F)F)n3nc(C(=O)N(C)Cc4cn(C)nc4C)c(Cl)c3N2)cc1 (centres undefined)	inconclusive: 29.7%	
Cc1ccc(S(=O)(=O)Nc2ccc3nc(-c4cccn4C)[nH]c3c2)cc1		inconclusive: 31.6 µM [inhibitor, single point]
COc1ccccc1N1CCN(C(CNS(=O)(=O)c2cccs2)c2cccnc2)CC1 (centres undefined)	inconclusive: 28.1%	
CN(C)CCCn1cc(C2=C(c3c[nH]c4ccccc34)C(=O)NC2=O)c2ccccc21		inconclusive: 31.6 µM [inhibitor, partial curve]
Cc1cccc(-c2noc(CCc3ccccc3)n2)c1		active: 31.6 µM [activator]
c1ccc(OCc2nc(-c3ccccc3)no2)cc1		inconclusive: 31.6 µM [activator, single point]
COc1ccccc1N1CCN(CCCNc2cc(=O)n(C)c(=O)n2C)CC1	inconclusive: 62.2%	
C=CCn1c(N)c(C(=O)NCC2CCCO2)c2nc3ccccc3nc21 (centres undefined)		inconclusive: 20 µM [activator, single point]
CC(C(=O)Nc1cccnc1)N1C(=O)c2ccccc2C1=O (centres undefined)	inconclusive: 44.7%	
CN1C(=O)CC(n2c(CO)nc3ccccc32)C1=O (centres undefined)	inactive	
O=C(O)c1ccc(CS(=O)c2cccc(C(F)(F)F)c2)o1 (centres undefined)	inconclusive: 38.7%	
CCn1c(C(O)c2cccc(OC)c2OC)nc2ccccc21 (centres undefined)	inconclusive: 52.2%	
COCCOC(=O)C1=C(C)NC2=C(C(=O)CC(C)(C)C2)C1c1cc2c(cc1Br)OCO2 (centres undefined)	inconclusive: 56.9%	
O=C(c1ccc2c(c1)OCO2)n1nnc2ccccc21	inconclusive: 44.5%	
CCCn1cnc2c1c(=O)n(CCCCC(C)=O)c(=O)n2C		inconclusive: 12.6 µM [inhibitor, single point]
COC(=O)[C@@H]1[C@@H]2C[C@H]3c4[nH]c5cc(OC)ccc5c4CCN3C[C@@H]2C[C@H](OC(=O)c2cc(OC)c(OC)c(OC)c2)[C@H]1OC	inconclusive: 24.6% [at 26 µM]	
Cc1cc(C)n(-c2nnc(C)n2/N=C/c2ccccc2OCc2ccccc2Cl)n1	inconclusive: 53.6% [at 11 µM]	
Cc1cc(OCC(=O)NCCCN2CCOCC2)cc(C)c1Cl	inconclusive: 52.8%	
COC(=O)CCS(=O)(=O)c1cc(Cl)ccc1Cl	inconclusive: 51.3%	
COC(=O)c1ccc(CSc2ccccc2C)o1	inconclusive: 103%	
CC(=O)CSCc1ccccn1		inconclusive: 3.98 µM [inhibitor, single point]
CCOC(=O)c1ccc(N2C(=O)CC(N3CCC(C(=O)OCC)CC3)C2=O)cc1 (centres undefined)	inconclusive: 51%	
CC(C)Nc1nc(NC(C)C)nc(N(C)C(N)=O)n1	inactive	
